{
  "sequences": {"note": "Sequences of proteins named here, by UniProt entry; tags and fusion partners are left off. A change or cut given only in a name is not applied to a line headed by its entry.", "UniProt O95671": "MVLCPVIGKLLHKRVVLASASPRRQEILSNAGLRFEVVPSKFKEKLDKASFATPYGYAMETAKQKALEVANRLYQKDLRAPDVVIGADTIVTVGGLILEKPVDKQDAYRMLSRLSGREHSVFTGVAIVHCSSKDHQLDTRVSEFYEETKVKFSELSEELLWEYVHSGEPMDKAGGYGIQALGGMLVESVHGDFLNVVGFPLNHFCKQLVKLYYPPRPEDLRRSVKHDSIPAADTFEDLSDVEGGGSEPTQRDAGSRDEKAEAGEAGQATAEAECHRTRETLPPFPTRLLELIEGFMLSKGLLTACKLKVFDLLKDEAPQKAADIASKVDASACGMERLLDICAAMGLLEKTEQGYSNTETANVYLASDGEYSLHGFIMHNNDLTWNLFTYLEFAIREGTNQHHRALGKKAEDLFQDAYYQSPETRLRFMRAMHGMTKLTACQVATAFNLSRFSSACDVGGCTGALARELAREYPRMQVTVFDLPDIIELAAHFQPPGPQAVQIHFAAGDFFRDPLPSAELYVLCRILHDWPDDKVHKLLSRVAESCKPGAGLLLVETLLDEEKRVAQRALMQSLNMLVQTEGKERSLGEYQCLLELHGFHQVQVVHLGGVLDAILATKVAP", "UniProt Q9Y4X5": "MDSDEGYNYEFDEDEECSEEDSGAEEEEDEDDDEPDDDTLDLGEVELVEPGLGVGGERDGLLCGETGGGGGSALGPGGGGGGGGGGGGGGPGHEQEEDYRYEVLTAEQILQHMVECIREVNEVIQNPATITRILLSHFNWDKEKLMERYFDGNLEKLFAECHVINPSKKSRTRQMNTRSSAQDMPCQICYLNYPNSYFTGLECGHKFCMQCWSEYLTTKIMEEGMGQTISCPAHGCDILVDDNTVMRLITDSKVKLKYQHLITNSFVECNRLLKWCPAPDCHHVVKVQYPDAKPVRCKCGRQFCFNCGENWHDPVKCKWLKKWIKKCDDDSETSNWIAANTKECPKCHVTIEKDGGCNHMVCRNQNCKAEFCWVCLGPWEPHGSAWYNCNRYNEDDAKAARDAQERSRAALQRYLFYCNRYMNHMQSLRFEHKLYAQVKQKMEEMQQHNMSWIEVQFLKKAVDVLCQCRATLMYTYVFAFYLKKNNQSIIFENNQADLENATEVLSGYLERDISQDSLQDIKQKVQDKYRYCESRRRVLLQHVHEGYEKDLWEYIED", "UniProt Q9NQW6": "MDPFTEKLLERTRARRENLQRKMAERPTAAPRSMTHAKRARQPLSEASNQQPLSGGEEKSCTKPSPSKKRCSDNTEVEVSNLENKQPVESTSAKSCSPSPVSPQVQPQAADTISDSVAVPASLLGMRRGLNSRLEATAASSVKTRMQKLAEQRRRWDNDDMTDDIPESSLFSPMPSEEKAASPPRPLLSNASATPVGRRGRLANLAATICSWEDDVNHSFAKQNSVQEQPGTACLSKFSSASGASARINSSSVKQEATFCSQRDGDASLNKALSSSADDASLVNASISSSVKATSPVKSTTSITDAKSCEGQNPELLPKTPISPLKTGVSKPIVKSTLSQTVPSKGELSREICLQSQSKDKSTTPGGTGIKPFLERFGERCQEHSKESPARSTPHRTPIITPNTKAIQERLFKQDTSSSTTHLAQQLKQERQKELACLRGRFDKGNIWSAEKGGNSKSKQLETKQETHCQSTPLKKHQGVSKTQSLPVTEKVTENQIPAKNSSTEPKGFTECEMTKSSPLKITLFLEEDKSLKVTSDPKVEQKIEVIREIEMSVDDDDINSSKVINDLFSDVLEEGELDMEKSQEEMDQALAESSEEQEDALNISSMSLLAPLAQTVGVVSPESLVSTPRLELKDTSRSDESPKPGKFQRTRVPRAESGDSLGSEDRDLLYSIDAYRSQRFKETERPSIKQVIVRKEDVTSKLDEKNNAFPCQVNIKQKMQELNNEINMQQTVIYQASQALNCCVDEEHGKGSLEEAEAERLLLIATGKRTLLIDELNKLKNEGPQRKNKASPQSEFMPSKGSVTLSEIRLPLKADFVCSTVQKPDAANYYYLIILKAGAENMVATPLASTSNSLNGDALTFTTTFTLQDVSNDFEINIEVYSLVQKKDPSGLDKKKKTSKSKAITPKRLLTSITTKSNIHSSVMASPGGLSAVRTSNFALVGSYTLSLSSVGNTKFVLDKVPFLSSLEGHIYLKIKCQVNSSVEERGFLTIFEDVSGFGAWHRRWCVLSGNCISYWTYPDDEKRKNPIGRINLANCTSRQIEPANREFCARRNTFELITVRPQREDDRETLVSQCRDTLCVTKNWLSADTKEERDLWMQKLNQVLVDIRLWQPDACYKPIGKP", "UniProt O14727": "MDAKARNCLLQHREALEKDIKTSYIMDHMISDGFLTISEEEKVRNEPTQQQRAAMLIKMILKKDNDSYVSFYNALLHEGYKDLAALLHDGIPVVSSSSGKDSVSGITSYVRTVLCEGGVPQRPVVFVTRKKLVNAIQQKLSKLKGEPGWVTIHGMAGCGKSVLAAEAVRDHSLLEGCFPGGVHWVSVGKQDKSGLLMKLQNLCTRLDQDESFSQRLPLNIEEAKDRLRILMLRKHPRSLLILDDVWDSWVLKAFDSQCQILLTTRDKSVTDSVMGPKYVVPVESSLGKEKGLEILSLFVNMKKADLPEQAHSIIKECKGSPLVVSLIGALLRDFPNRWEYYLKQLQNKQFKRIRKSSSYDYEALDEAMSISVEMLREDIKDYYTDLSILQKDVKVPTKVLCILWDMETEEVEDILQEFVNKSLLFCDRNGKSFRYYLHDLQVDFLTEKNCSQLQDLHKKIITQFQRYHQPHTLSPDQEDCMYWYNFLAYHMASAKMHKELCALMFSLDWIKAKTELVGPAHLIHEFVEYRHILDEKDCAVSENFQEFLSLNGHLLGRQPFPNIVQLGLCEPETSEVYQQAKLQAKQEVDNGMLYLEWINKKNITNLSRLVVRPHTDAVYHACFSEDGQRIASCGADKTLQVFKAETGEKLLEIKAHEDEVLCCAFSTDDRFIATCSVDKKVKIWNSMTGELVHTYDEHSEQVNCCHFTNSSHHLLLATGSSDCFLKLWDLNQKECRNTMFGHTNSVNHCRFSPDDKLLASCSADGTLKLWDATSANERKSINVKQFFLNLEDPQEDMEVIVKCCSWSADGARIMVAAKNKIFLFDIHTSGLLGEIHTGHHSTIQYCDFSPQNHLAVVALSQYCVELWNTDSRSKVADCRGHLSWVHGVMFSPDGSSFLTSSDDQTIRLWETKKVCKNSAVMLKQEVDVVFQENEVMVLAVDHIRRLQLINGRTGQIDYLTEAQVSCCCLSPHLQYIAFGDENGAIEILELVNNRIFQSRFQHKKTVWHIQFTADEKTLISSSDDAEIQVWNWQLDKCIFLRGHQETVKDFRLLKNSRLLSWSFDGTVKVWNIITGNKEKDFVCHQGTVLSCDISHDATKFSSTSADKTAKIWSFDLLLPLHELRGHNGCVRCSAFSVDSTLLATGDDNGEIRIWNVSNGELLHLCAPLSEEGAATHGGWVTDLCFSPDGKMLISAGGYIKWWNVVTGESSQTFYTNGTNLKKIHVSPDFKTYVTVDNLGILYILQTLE", "UniProt P53677": "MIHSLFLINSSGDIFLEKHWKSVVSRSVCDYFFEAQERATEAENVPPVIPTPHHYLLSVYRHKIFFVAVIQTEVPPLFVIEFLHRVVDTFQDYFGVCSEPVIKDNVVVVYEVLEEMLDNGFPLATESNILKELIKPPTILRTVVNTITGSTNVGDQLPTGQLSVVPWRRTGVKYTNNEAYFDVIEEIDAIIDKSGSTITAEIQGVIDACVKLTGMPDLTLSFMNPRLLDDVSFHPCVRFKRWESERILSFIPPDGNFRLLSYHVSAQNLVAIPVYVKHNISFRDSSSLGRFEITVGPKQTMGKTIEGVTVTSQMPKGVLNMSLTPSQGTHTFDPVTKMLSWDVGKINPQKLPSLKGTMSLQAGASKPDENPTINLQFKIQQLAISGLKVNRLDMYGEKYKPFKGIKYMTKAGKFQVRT", "UniProt Q9UH62": "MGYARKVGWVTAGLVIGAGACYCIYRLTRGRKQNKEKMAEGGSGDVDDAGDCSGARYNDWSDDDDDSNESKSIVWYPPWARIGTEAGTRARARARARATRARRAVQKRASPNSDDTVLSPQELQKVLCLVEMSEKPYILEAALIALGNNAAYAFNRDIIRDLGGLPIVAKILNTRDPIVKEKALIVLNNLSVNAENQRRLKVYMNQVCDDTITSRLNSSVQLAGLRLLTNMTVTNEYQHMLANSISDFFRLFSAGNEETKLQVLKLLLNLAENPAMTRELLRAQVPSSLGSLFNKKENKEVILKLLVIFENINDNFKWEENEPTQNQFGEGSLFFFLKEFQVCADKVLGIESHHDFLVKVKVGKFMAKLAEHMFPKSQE", "UniProt Q9Y2T2": "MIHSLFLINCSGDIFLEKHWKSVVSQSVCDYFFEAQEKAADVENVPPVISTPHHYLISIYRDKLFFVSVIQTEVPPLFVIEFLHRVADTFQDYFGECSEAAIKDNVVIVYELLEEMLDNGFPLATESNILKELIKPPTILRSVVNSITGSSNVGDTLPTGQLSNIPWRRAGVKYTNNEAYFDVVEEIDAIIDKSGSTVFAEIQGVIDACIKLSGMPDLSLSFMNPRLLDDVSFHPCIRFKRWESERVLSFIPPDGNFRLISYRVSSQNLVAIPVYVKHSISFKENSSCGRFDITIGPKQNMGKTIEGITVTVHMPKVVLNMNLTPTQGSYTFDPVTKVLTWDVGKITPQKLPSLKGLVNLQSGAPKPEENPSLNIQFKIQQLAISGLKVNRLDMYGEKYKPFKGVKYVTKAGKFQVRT", "UniProt O00192": "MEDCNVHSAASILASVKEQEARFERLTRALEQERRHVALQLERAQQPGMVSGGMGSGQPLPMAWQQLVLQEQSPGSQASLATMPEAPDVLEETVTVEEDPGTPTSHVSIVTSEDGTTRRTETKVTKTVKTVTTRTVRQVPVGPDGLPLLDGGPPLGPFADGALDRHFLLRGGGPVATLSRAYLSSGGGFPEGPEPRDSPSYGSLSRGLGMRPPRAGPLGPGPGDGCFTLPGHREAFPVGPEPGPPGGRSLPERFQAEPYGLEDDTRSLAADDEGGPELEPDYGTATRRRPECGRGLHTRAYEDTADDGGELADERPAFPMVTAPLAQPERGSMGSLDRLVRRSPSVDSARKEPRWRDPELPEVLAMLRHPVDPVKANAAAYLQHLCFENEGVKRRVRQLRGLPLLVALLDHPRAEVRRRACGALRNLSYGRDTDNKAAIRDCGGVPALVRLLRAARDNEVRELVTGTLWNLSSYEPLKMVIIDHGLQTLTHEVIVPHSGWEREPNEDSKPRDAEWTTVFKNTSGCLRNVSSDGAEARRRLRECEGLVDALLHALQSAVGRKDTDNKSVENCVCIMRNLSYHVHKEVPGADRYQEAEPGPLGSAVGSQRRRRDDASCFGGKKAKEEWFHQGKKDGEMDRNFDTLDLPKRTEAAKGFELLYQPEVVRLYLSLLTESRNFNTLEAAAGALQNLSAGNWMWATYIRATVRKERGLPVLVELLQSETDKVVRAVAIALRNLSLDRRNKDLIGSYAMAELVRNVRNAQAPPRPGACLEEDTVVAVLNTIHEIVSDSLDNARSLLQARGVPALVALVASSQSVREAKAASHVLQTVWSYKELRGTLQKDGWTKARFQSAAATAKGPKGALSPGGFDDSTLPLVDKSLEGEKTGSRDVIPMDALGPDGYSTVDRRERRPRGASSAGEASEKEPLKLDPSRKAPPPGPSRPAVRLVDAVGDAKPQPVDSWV", "UniProt O95376": "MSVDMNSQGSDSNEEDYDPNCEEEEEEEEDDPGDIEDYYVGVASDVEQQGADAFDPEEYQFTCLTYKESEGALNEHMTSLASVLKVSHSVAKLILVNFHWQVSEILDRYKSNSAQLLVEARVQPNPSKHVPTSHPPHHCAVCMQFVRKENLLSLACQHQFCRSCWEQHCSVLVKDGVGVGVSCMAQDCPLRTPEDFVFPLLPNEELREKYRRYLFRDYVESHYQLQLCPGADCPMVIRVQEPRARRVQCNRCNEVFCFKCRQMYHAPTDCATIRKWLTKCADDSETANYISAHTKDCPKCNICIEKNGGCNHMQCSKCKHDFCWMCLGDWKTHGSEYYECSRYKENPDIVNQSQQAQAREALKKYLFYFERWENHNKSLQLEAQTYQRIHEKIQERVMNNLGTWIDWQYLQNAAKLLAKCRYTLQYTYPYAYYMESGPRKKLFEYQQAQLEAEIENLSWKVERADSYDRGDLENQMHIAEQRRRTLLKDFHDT"},
  "source": "the supplement of paper PMC11732987",
  "about": "“Enantioselective OTUD7B fragment discovery through chemoproteomics screening and high-throughput optimisation” (Communications Chemistry, 2025)",
  "key": {"[1]": {"compound": "ClCC(=O)N[C@@H]1CCCc2ccccc12", "assay": "log2 mean competition ratio of IA-DTB cysteine labelling (DMSO/compound) (log2 ratio); higher = stronger cysteine engagement by compound", "conditions": "treatment time: 4 h, cell line lysate: HEK293T", "protocol": "(§1)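 IA-DTB competitive cysteine chemoproteomics in HEK293T RIPA lysate. Lysates were treated with compound 29 or 30 at 50 or 200 µM for 4 h, then IA-DTB (500 µM, 1 h), trypsin-digested, NeutrAvidin-enriched and analysed by diaPASEF. Competition ratio = intensity DMSO / intensity compound (n=4 treated, n=64 DMSO); binding: mean log2 CR ≥ 1 and p ≤ 0.05 plus QC filters. Target is the cysteine site.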"}, "[2]": {"compound": "ClCC(=O)N[C@H]1CCCc2ccccc12", "assay": "log2 mean competition ratio of IA-DTB cysteine labelling (DMSO/compound) (log2 ratio); higher = stronger cysteine engagement by compound", "conditions": "treatment time: 4 h, cell line lysate: HEK293T", "protocol": "as §1"}},
  "note": "This is one part of the list. The data scatter; read single values as rough.",
  "data": [
    {"target": "ASMTL C333 (UniProt O95671)", "values": [
      {"measurement": "log2 mean competition ratio", "setting": "[1]; 50 µM", "result": -0.0791},
      {"measurement": "log2 mean competition ratio", "setting": "[1]; 200 µM", "result": 0.149},
      {"measurement": "log2 mean competition ratio", "setting": "[2]; 50 µM", "result": 0.00504},
      {"measurement": "log2 mean competition ratio", "setting": "[2]; 200 µM", "result": 0.213}
    ]},
    {"target": "AP1G1 C539", "values": [
      {"measurement": "log2 mean competition ratio", "setting": "[1]; 50 µM", "result": 0.0381},
      {"measurement": "log2 mean competition ratio", "setting": "[1]; 200 µM", "result": -0.245},
      {"measurement": "log2 mean competition ratio", "setting": "[2]; 50 µM", "result": 0.0879},
      {"measurement": "log2 mean competition ratio", "setting": "[2]; 200 µM", "result": -0.304}
    ]},
    {"target": "ARFGEF1 C102 (UniProt Q9Y6D6)", "values": [
      {"measurement": "log2 mean competition ratio", "setting": "[1]; 50 µM", "result": 0.286},
      {"measurement": "log2 mean competition ratio", "setting": "[1]; 200 µM", "result": 0.428},
      {"measurement": "log2 mean competition ratio", "setting": "[2]; 50 µM", "result": 0.518},
      {"measurement": "log2 mean competition ratio", "setting": "[2]; 200 µM", "result": 0.385}
    ]},
    {"target": "ARPC1B C227 (UniProt O15143)", "values": [
      {"measurement": "log2 mean competition ratio", "setting": "[1]; 50 µM", "result": -0.122},
      {"measurement": "log2 mean competition ratio", "setting": "[1]; 200 µM", "result": 0.306},
      {"measurement": "log2 mean competition ratio", "setting": "[2]; 50 µM", "result": -0.144},
      {"measurement": "log2 mean competition ratio", "setting": "[2]; 200 µM", "result": 0.0102}
    ]},
    {"target": "ARHGEF26 C850", "values": [
      {"measurement": "log2 mean competition ratio", "setting": "[1]; 50 µM", "result": -0.182},
      {"measurement": "log2 mean competition ratio", "setting": "[1]; 200 µM", "result": -0.147},
      {"measurement": "log2 mean competition ratio", "setting": "[2]; 50 µM", "result": 0.0641},
      {"measurement": "log2 mean competition ratio", "setting": "[2]; 200 µM", "result": 0.0346}
    ]},
    {"target": "ARIH1 C269 (UniProt Q9Y4X5)", "values": [
      {"measurement": "log2 mean competition ratio", "setting": "[1]; 50 µM", "result": 0.0268},
      {"measurement": "log2 mean competition ratio", "setting": "[1]; 200 µM", "result": 0.293},
      {"measurement": "log2 mean competition ratio", "setting": "[2]; 50 µM", "result": -0.376},
      {"measurement": "log2 mean competition ratio", "setting": "[2]; 200 µM", "result": 0.0243}
    ]},
    {"target": "ANLN C1081 (UniProt Q9NQW6)", "values": [
      {"measurement": "log2 mean competition ratio", "setting": "[1]; 50 µM", "result": -0.213},
      {"measurement": "log2 mean competition ratio", "setting": "[1]; 200 µM", "result": 0.323},
      {"measurement": "log2 mean competition ratio", "setting": "[2]; 50 µM", "result": 0.114},
      {"measurement": "log2 mean competition ratio", "setting": "[2]; 200 µM", "result": 0.654}
    ]},
    {"target": "AQR C595 (UniProt O60306)", "values": [
      {"measurement": "log2 mean competition ratio", "setting": "[1]; 50 µM", "result": -0.0938},
      {"measurement": "log2 mean competition ratio", "setting": "[1]; 200 µM", "result": 0.0365},
      {"measurement": "log2 mean competition ratio", "setting": "[2]; 50 µM", "result": -0.348},
      {"measurement": "log2 mean competition ratio", "setting": "[2]; 200 µM", "result": -0.00117}
    ]},
    {"target": "APAF1 C8 (UniProt O14727)", "values": [
      {"measurement": "log2 mean competition ratio", "setting": "[1]; 50 µM", "result": 0.147},
      {"measurement": "log2 mean competition ratio", "setting": "[1]; 200 µM", "result": -0.118},
      {"measurement": "log2 mean competition ratio", "setting": "[2]; 50 µM", "result": -0.192},
      {"measurement": "log2 mean competition ratio", "setting": "[2]; 200 µM", "result": -0.177}
    ]},
    {"target": "ASB3 C274 (UniProt Q9Y575)", "values": [
      {"measurement": "log2 mean competition ratio", "setting": "[1]; 50 µM", "result": -0.124},
      {"measurement": "log2 mean competition ratio", "setting": "[1]; 200 µM", "result": 0.178},
      {"measurement": "log2 mean competition ratio", "setting": "[2]; 50 µM", "result": -0.0492},
      {"measurement": "log2 mean competition ratio", "setting": "[2]; 200 µM", "result": 0.123}
    ]},
    {"target": "AP3M2 C29 (UniProt P53677)", "values": [
      {"measurement": "log2 mean competition ratio", "setting": "[1]; 50 µM", "result": 0.177},
      {"measurement": "log2 mean competition ratio", "setting": "[1]; 200 µM", "result": -0.0984},
      {"measurement": "log2 mean competition ratio", "setting": "[2]; 50 µM", "result": 0.286},
      {"measurement": "log2 mean competition ratio", "setting": "[2]; 200 µM", "result": 0.0785}
    ]},
    {"target": "ASCC3 C310 (UniProt Q8N3C0)", "values": [
      {"measurement": "log2 mean competition ratio", "setting": "[1]; 50 µM", "result": -0.0099},
      {"measurement": "log2 mean competition ratio", "setting": "[1]; 200 µM", "result": 0.269},
      {"measurement": "log2 mean competition ratio", "setting": "[2]; 50 µM", "result": 0.0529},
      {"measurement": "log2 mean competition ratio", "setting": "[2]; 200 µM", "result": 0.28}
    ]},
    {"target": "ARMCX3 C208 (UniProt Q9UH62)", "values": [
      {"measurement": "log2 mean competition ratio", "setting": "[1]; 50 µM", "result": -0.207},
      {"measurement": "log2 mean competition ratio", "setting": "[1]; 200 µM", "result": 0.034},
      {"measurement": "log2 mean competition ratio", "setting": "[2]; 50 µM", "result": -0.11},
      {"measurement": "log2 mean competition ratio", "setting": "[2]; 200 µM", "result": -0.0123}
    ]},
    {"target": "ARHGAP26 C142 (UniProt Q9UNA1)", "values": [
      {"measurement": "log2 mean competition ratio", "setting": "[1]; 50 µM", "result": -0.105},
      {"measurement": "log2 mean competition ratio", "setting": "[1]; 200 µM", "result": -0.142},
      {"measurement": "log2 mean competition ratio", "setting": "[2]; 50 µM", "result": -0.0121},
      {"measurement": "log2 mean competition ratio", "setting": "[2]; 200 µM", "result": 0.0874}
    ]},
    {"target": "AP3M1 C288 (UniProt Q9Y2T2)", "values": [
      {"measurement": "log2 mean competition ratio", "setting": "[1]; 50 µM", "result": -0.289},
      {"measurement": "log2 mean competition ratio", "setting": "[1]; 200 µM", "result": 0.103},
      {"measurement": "log2 mean competition ratio", "setting": "[2]; 50 µM", "result": 0.235},
      {"measurement": "log2 mean competition ratio", "setting": "[2]; 200 µM", "result": 0.0262}
    ]},
    {"target": "ANKRD17 C1158 (UniProt O75179)", "values": [
      {"measurement": "log2 mean competition ratio", "setting": "[1]; 50 µM", "result": 0.152},
      {"measurement": "log2 mean competition ratio", "setting": "[1]; 200 µM", "result": 0.0454},
      {"measurement": "log2 mean competition ratio", "setting": "[2]; 50 µM", "result": -0.177},
      {"measurement": "log2 mean competition ratio", "setting": "[2]; 200 µM", "result": -0.191}
    ]},
    {"target": "ARHGAP12 C199 (UniProt Q8IWW6)", "values": [
      {"measurement": "log2 mean competition ratio", "setting": "[1]; 50 µM", "result": -0.0209},
      {"measurement": "log2 mean competition ratio", "setting": "[1]; 200 µM", "result": 0.028},
      {"measurement": "log2 mean competition ratio", "setting": "[2]; 50 µM", "result": -0.301},
      {"measurement": "log2 mean competition ratio", "setting": "[2]; 200 µM", "result": -0.23}
    ]},
    {"target": "ANKRD50 C639 (UniProt Q9ULJ7)", "values": [
      {"measurement": "log2 mean competition ratio", "setting": "[1]; 50 µM", "result": -0.246},
      {"measurement": "log2 mean competition ratio", "setting": "[1]; 200 µM", "result": -0.036},
      {"measurement": "log2 mean competition ratio", "setting": "[2]; 50 µM", "result": -0.119},
      {"measurement": "log2 mean competition ratio", "setting": "[2]; 200 µM", "result": -0.0923}
    ]},
    {"target": "ARVCF C442 (UniProt O00192)", "values": [
      {"measurement": "log2 mean competition ratio", "setting": "[1]; 50 µM", "result": 0.077},
      {"measurement": "log2 mean competition ratio", "setting": "[1]; 200 µM", "result": 0.402},
      {"measurement": "log2 mean competition ratio", "setting": "[2]; 50 µM", "result": 0.371},
      {"measurement": "log2 mean competition ratio", "setting": "[2]; 200 µM", "result": 0.526}
    ]},
    {"target": "APBA2 C272 (UniProt Q99767)", "values": [
      {"measurement": "log2 mean competition ratio", "setting": "[1]; 50 µM", "result": -0.108},
      {"measurement": "log2 mean competition ratio", "setting": "[1]; 200 µM", "result": -0.0245},
      {"measurement": "log2 mean competition ratio", "setting": "[2]; 50 µM", "result": -0.197},
      {"measurement": "log2 mean competition ratio", "setting": "[2]; 200 µM", "result": -0.0573}
    ]},
    {"target": "ARRB2 C141 (UniProt P32121)", "values": [
      {"measurement": "log2 mean competition ratio", "setting": "[1]; 50 µM", "result": -0.241},
      {"measurement": "log2 mean competition ratio", "setting": "[1]; 200 µM", "result": 0.00972},
      {"measurement": "log2 mean competition ratio", "setting": "[2]; 50 µM", "result": -0.479},
      {"measurement": "log2 mean competition ratio", "setting": "[2]; 200 µM", "result": 0.00323}
    ]},
    {"target": "ANKRD17 C210 (UniProt O75179)", "values": [
      {"measurement": "log2 mean competition ratio", "setting": "[1]; 50 µM", "result": -0.0269},
      {"measurement": "log2 mean competition ratio", "setting": "[1]; 200 µM", "result": 0.275},
      {"measurement": "log2 mean competition ratio", "setting": "[2]; 50 µM", "result": -0.291},
      {"measurement": "log2 mean competition ratio", "setting": "[2]; 200 µM", "result": 0.25}
    ]},
    {"target": "ARIH2 C270 (UniProt O95376)", "values": [
      {"measurement": "log2 mean competition ratio", "setting": "[1]; 50 µM", "result": -0.316},
      {"measurement": "log2 mean competition ratio", "setting": "[1]; 200 µM", "result": 0.194},
      {"measurement": "log2 mean competition ratio", "setting": "[2]; 50 µM", "result": -0.175},
      {"measurement": "log2 mean competition ratio", "setting": "[2]; 200 µM", "result": 0.0647}
    ]}
  ]
}
